Results are given in words; binding and its absence hold for the method and conditions named. Binding seen in cells or lysates may run through a third protein. These calls come from enrichment with a bait or labelling near it, and not all partners need be listed.
Molecular target: GST-CT622 (C. trachomatis D/UW-3/CX) (UniProt O84627)
Test: affinity purification with mass spectrometry; 30 μg purified GST or GST-CT622 with glutathione sepharose 4B beads, incubated 90 min at 4°C with precleaned, sonicated lysate of elementary bodies (NP40 lysis buffer); five washes; eluted with urea buffer; done twice; only the target purified

B1: CT635 (protein, UniProt O84640 1-144)
chain: MKNNSAQKIIDSIKQILSIYKIDFEPSFGATLTDDNDLDYQMLIEKTQEKIQELDKRSQEILQQTGMTREQMEVFANNPDNFSPEEWRALENIRSSCNEYKKETEELIKEVTNDIGHSSHKSPTPKKTKSSSQKKSKKKNWIPL
Q: For B1, which binding is on record?
A: binds
